About 13,000 (3.2%) of roughly 400,000 compounds were called active. The inconclusive results got no clear call from the source; some entries with a clear call stand among them for comparison. The call rests on the fitted dose curve; in most records, active means well fitted cell-killing curve with a large enough effect; inconclusive means small, poorly fitted or top-dose-only effect, or effect the other way; inactive means flat fitted curve, though single readings scatter. Where the call is inconclusive, the potency comes from a doubtful curve fit.
Assay: qHTS assay for MDR1-selective chemotherapeutics: Primary screen using the drug-selected MDR subline cells KB-V1; further: nearly all actives have a fitted effect of over 60% in size
Settings: KB-V1 MDR cells viability, CellTiter-Glo, 72 h; activity change, negative = cytotoxicity: at 46.1 µM (top of the series)
Procedure, shortened: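 Cytotoxicity toward P-gp-expressing KB-V1 cells was determined as loss of CellTiter-Glo luminescence after 72 h at 37 degrees C. Compounds were tested in quantitative HTS format across a concentration range, with curves fitted to normalized data.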
On the % scale 0 is the no-effect control and ±100 the full control effect; potency means the concentration at half of the fitted maximal effect.

SMILES | Potency | activity change, negative = cytotoxicity
O=C(NCCC1=CCCCC1)C1CCN(C(=O)Nc2ccccc2)CC1 | inconclusive: 6.51 µM [cytotoxic, partial curve, poor fit] | 
CCOC(=O)C1=C(C)N(c2ccccc2)C(=O)NC1c1cccc([N+](=O)[O-])c1 (stereo not drawn) | active: 20.6 µM | 
C/C(=N/NC(=O)c1ccco1)c1cccc(NC(=O)c2ccc(C)s2)c1 | active: 10.3 µM | 
Cc1ccc(Cl)cc1N1CCN(C(=O)CN(c2ccccc2)S(=O)(=O)N(C)C)CC1 | inconclusive: 3.26 µM [cytotoxic, full curve] | 
O=C(Nc1ccccc1F)c1ccc(C(=O)c2ccccc2)cc1 | inconclusive: 18.4 µM [cytotoxic, single point] | 
O=C(Nc1cccc(-c2ccc(N3CCCCC3)nn2)c1)C(F)(F)F | inconclusive: 16.4 µM [cytotoxic, partial curve, poor fit] | 
COc1ccc(CCNC(=O)c2ccc(CNS(=O)(=O)c3ccccc3)cc2)cc1OC | inconclusive: 20.6 µM [cytotoxic, single point] | inconclusive: -43.6%
COc1cc(C)ccc1OCCOCCOc1cccc2ccc(C)nc12 | inactive | 
CSC[C@H]1CN(c2ccccc2)C(=O)[C@@H]1CC(=O)Nc1ccc(Br)cc1 | inconclusive: 16.4 µM [cytotoxic, partial curve] | 
Cc1ccc(-n2[nH]c(C)c(/C=N/N3C(=O)c4cccc5cccc(c45)C3=O)c2=O)cc1 | inconclusive: 29.1 µM [cytotoxic, single point] | 
CCC1CN(C(=O)Nc2ccc(C(=O)O)cc2)c2cc(Cl)ccc2O1 (stereo not drawn) | inconclusive: 3.66 µM [rising, full curve] | 
CC(C)Oc1ccc(S(=O)(=O)N2CCOCC2)cc1NC(=O)CSC(=S)N1CCCC1 | inconclusive: 8.2 µM [cytotoxic, partial curve, poor fit] | 
CNc1nc(-c2ccc3c(c2)CCN3C(=O)c2cccc(F)c2)cs1 | inactive | 
CCn1c(SCC(=O)Nc2cc(C)on2)nnc1-c1cccc(C)c1 | inconclusive: 14.6 µM [cytotoxic, single point] | 
Cc1noc(C)c1S(=O)(=O)N(C)C[C@H]1OCc2cnnn2CCCC(=O)N([C@H](C)CO)C[C@@H]1C | inconclusive: 0.0073 µM [rising, full curve, poor fit] | 
Cc1cc(Br)ccc1SCC(=O)Nc1cccnc1 | inactive | 
COCCn1c(SCC(=O)c2cc(C)n(C)c2C)nc2ccccc2c1=O | inconclusive: 11.6 µM [cytotoxic, partial curve, poor fit] | 
Cc1sc2nc(CSc3ccccc3)nc(N3CCOCC3)c2c1C | inactive | 
CCOc1cc(/C=N/NC(=O)Cn2nc([N+](=O)[O-])cc2C)cc(Br)c1OCc1ccccc1C | inconclusive: 23.1 µM [cytotoxic, partial curve] | 
Cc1c(C(=O)NCc2ccccc2C(F)(F)F)sc(=O)n1Cc1ccc(S(=O)(=O)N(C)C)cc1 | active: 8.2 µM | 
O=c1c2ccccc2nc(SCc2ccc(F)cc2Cl)n1CCCN1CCOCC1 | inconclusive: 9.2 µM [cytotoxic, partial curve] | 

SMILES | Potency | activity change, negative = cytotoxicity
CCN(CC)CCCNC(=S)N(CCCO)Cc1cc2cc3c(cc2[nH]c1=O)OCO3 | inconclusive: 29.1 µM [rising, single point] | 
COCCNC(=O)CSc1nc2ccccc2c(=O)n1CCC(=O)N1CCN(c2ccccc2)CC1 | inconclusive: 25.9 µM [cytotoxic, partial curve, poor fit] | 
CN(O)/C=c1/ccc2c(n1)C(=O)C=CC=2 | inconclusive: 9.2 µM [cytotoxic, partial curve, poor fit] | 
CN(CC(=O)Nc1ccc(Cl)cc1)CC(=O)Nc1cc(Cl)ccc1C#N | inconclusive: 29.1 µM [cytotoxic, single point] | 
CC1(C)CC2CC(C)(CN2C(=O)c2cccs2)C1 (stereo not drawn) | inactive | 
FC(F)(F)c1cccc(Nc2ncnc3ccccc23)c1 | active: 18.4 µM | 
CCOc1ccc(S(=O)(=O)Nc2ccc(-c3ccc(OC)nn3)cc2)cc1 | inactive | 
CCOC(=O)C1CCCN(S(=O)(=O)c2csc(C(N)=O)c2)C1 (stereo not drawn) | inactive | 
COc1ccccc1N1CCN(C(=O)c2cc3ccc4ccc(C)[nH]c4c3n2)CC1 | inconclusive: 23.1 µM [rising, single point] | 
CS(=O)(=O)N(CC(=O)N1CCN(c2cccc(Cl)c2)CC1)c1ccccc1 | inconclusive: 14.6 µM [cytotoxic, single point] | 
C=CC(COCc1ccccc1)N(C(=O)OC(C)(C)C)S(=O)(=O)c1ccccc1Br (stereo not drawn) | inconclusive: 29.1 µM [cytotoxic, single point] | 
Cc1ccc(CNC(=O)Cn2c(=O)n(-c3cccc(Cl)c3)c(=O)c3sc4ccccc4c32)cc1 | inactive | 
CC(C)c1nc(N2CCN(C(=O)c3ccccc3)CC2)c(C#N)c2c1COC(C)(C)C2 | inconclusive: 25.9 µM [cytotoxic, partial curve, poor fit] | 
O=C(N/N=C(\CC(=O)c1cccs1)C(F)(F)F)c1ccncc1 | inconclusive: 8.2 µM [cytotoxic, partial curve] | 
Cc1nc(Sc2ccccc2)c(C#N)c(C)c1[N+](=O)[O-] |  | inconclusive: 1.88%
COc1ccc(CNC(=S)NNC(=O)c2cc3ccccc3o2)cc1 | inconclusive: 20.6 µM [rising, single point] | 
CC1=CS(=O)(=O)CC1Sc1nc(C)n[nH]1 (stereo not drawn) | inconclusive: 5.8 µM [rising, partial curve, poor fit] | 
CCN(C(=O)COC(=O)CNC(=O)c1ccc(Cl)cc1Cl)c1c(N)n(Cc2ccccc2)c(=O)[nH]c1=O |  | inconclusive: 0%
CCc1c(C)nc(SCC(=O)Nc2cccc(Br)c2)[nH]c1=O | inconclusive: 29.1 µM [cytotoxic, single point] | 
Cc1ccc(C)c(Cn2c(=O)cc(C)c3c(C)nn(C)c32)c1 | inconclusive: 29.1 µM [cytotoxic, single point] | 
O=C(NCc1ccco1)C1CCN(c2nc3ccccc3n2Cc2ccccc2F)CC1 | inactive | 

Of the compounds above, these have a nitro group on carbon:
SMILES | Potency | activity change, negative = cytotoxicity
CCOC(=O)C1=C(C)N(c2ccccc2)C(=O)NC1c1cccc([N+](=O)[O-])c1 (stereo not drawn) | active: 20.6 µM | 
CCOc1cc(/C=N/NC(=O)Cn2nc([N+](=O)[O-])cc2C)cc(Br)c1OCc1ccccc1C | inconclusive: 23.1 µM [cytotoxic, partial curve] | 
Cc1nc(Sc2ccccc2)c(C#N)c(C)c1[N+](=O)[O-] |  | inconclusive: 1.88%

From PubChem BioAssay AID1347076 (National Center for Advancing Translational Sciences (NCATS), 2019)
